Results as given in the supplement of paper PMC3334620.
In all, about 33,000 sequences were measured (“E-score (-0.5 to 0.5)”: median about -8e-05, highest 2% from about 0.23 on). Some of the results follow.

Each sequence was assayed against T1, Nrg2 (UniProt P38082) (assay: PBM E-score (8-mer binding enrichment) (E-score (-0.5 to 0.5)); higher = stronger / more preferred TF binding). Settings: protein concentration: 100 nM; construct: GST-full length.
T1 sequence: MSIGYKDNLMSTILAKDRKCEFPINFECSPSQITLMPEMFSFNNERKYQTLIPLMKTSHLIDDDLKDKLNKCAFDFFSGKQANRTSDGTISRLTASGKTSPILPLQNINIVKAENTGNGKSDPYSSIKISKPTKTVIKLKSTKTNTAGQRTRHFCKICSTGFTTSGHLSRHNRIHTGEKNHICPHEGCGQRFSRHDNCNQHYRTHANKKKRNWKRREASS
How it was run: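 GST-tagged yeast TFs (full-length or DNA-binding domain) were made by PURExpress in vitro transcription/translation and applied at about 100-200 nM to universal all-10-mer Agilent arrays. The arrays were made double-stranded by primer extension, on fresh or once-stripped slides. Bound protein was detected with fluorescent anti-GST, and scans were normalised with masliner. Each ungapped eight-base word, pooled with its reverse complement, received an E-score (modified Wilcoxon-Mann-Whitney statistic) from the Universal PBM Analysis Suite.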

Sequence | PBM E-score
ACGTTACA | -0.111
CGGGCTAG | -0.0659
GGTGGAAC | -0.169
TCTCGAAA | 0.124
AACAGCGG | -0.0995
AGCTTTGC | -0.147
ACGAGAAA | 0.174
AAATTGTC | 0.24
AAGTCCCG | -0.069
AAGTTAAT | -0.00228
ACATATCC | 0.0887
ACTGTTCC | -0.156
TAGATGCA | 0.0915
GAGCCTCC | -0.193
CCCTTCCA | -0.164
ACGATATC | 0.0337
GATTGAAC | 0.0736
ACCCAACT | 0.111
CAATAAAC | 0.152
AATTGTTA | 0.0656
CAAAAACA | 0.00942
AATGCTCG | 0.0937
AACCCCGC | -0.00789
CCAGCCTA | -0.0813
TACTCAAA | 0.0341

Fetched one by one from the list above:
Sequence | PBM E-score
AAATTGTC | 0.24
AACCCCGC | -0.00789
TACTCAAA | 0.0341
GATTGAAC | 0.0736
AAGTCCCG | -0.069

Additional results follow:

Sequence | PBM E-score
CCGTGTTC | 0.203
ACTTTGCA | 0.157
ACCGATCA | 0.0302
ATTGGTAC | -0.0096
AACGAATC | 0.143
TACATGCA | 0.116
AGTCCCAT | -0.0808
TCTGTCCA | -0.0691
CGGATTTC | 0.0939
AGAGTTTC | -0.258
GAACCCTA | 0.0863
CAGGAGTA | -0.028
AAATCTCG | 0.0889
TCAGGGGA | 0.159
CCACCTTC | -0.28
CCCCGCAA | 0.115
CCTCTCAA | 0.00399
GGTTCGAA | 0.221
CAGTGAGG | -0.23
ACAAGCAG | -0.117
CACTTGCG | -0.075
ATGTGCGC | 0.0525
CCCGACCA | 0.0818
CGCTCGGC | 0.0597
AGGCGTAG | -0.195

Sequence | PBM E-score
CGGCTTCA | 0.0879
CAGTGGAG | 0.166
GTCCGCAC | 0.136
GATGAGCA | 0.169
CAATTGCA | -0.0952
ACGGACGT | -0.169
CACAAAGC | 0.0422
AATAGAAA | 0.0204
AAGCCCTC | -0.132
CTAAATGA | 0.0289
CCGCGGGC | 0.0924
TCATAAAA | -0.032
ATCAAGCC | 0.0359
AAAGTGGT | 0.0259
ACACATAC | 0.0414
AAACCGAC | 0.157
GCTCTTCC | -0.202
CAAAACGG | 0.0312
CCTAACCG | -0.136
ATCTCTGA | -0.135
ACACTGAG | 0.00229
CGTGCCGC | 0.0137
ATTCATCG | 0.134
ACTTGAAG | -0.0885
GCAAACTA | 0.0526

Sequence | PBM E-score
CAGAAACA | 0.131
AATCCGAT | 0.0806
CCAGTGTC | -0.0246
GGACTGAA | 0.014
ACGGAATG | -0.00971
AGCGGTTC | -0.0148
ACACCTAA | -0.0691
AACACCCT | -0.00643
ACAGATGA | -0.0278
AAACCAGA | 0.119
ACGGGGAA | -0.076
AGCGATGC | -0.177
ATTGGTAA | 0.201
GCGTGGCC | -0.108
AGAATCAT | 0.0757
ACAAGTGC | -0.0992
CGGCCTTA | 0.0601
CTCGAGCA | 0.183
CTTCATCC | -0.0188
TTAATCAA | 0.189
GTACTATA | 0.115
CCGAGACC | 0.0704
CAGGAAAC | 0.043
AACTTACG | -0.0379
GGAGCAAC | -0.0766

Another view of some results above.
ACAAGTGC
  PBM E-score = -0.0992
CGGCCTTA
  PBM E-score = 0.0601
CTCGAGCA
  PBM E-score = 0.183
CTTCATCC
  PBM E-score = -0.0188

Additional entries

Sequence | PBM E-score
ACAGCGCT | -0.00397
CATCACCC | 0.0812
AAGTTGAC | -0.0031
AGCGAAGC | -0.168
GTGAAAAC | -0.00418
CAAAAGCA | 0.00741
GAACCGAA | 0.062
AAATCCGG | 0.0878
GGGAAACC | 0.182
CGGGGCTC | -0.13
AGGTAAAT | -0.0123
GGTGATAA | -0.0898
CGTTAATC | 0.0184
CGAGGGGA | -0.0688
ACCAACCT | -0.00259
ATCCCCCG | -0.208
CTAAACAA | -0.144
GCTATTAC | 0.026
GGTCAGTA | -0.108
GGATGCCA | -0.132
GGGAATAC | -0.0225
TAGCACTA | -0.0158
CCACTTGA | 0.0276
ACAGTCTA | -0.111
CCTTCGGA | -0.0295

Sequence | PBM E-score
CGCTCAGA | -0.108
AACTGCCA | -0.0308
AGCGCATA | 0.0414
CTTAGGTC | 0.0284
ATCCCACG | -0.0431
AGCATACG | -0.0799
CCTATAGC | -0.042
ACGTCATA | -0.014
GCCAGATA | -0.0572
CTAATATC | 0.169
CCGTCAGC | -0.138
ACCATCAA | -0.154
CTCACTAA | -0.00047
GCACAGTA | 0.207
CGACTTTC | -0.0518
CATGGGAC | 0.045
GCAGGGCC | 0.101
AACGGTCA | 0.0266
GGACGGAC | 0.0225
GATGGCAA | 0.0937
AGTCCTTG | -0.0339
AGTGCCCA | 0.0206
CGCCGCTA | 0.142
TAAAGCTA | -0.241
GCAAGAAA | 0.117

Sequence | PBM E-score
ATCGTATC | 0.00646
AACTGCCG | 0.00451
CGCAAGAA | 0.299
CCGAGACG | -0.0212
AATACCGG | 0.0822
ATCGTCAG | -0.0719
ATCACTGA | -0.0438
CTACTGCA | -0.176
CGCCTGTC | -0.106
CAGTCAGG | 0.047
CAAGAGAG | -0.0197
GAAATATA | 0.256
AAGGCGTC | -0.0697
TAGATACA | 0.0563
ACCATGCC | -0.0606
GTCGAGGA | -0.076
AACCACAG | -0.0459
CAGGCCGG | -0.287
GCCGTACC | -0.0541
ACGAAATA | 0.167
CAGTCCGA | -0.0581
CCTGCCCA | -0.0494
CCGTGGAG | -0.226
CTGTAAAG | -0.188
CATGCGAA | 0.134

Sequence | PBM E-score
CCCTCATC | -0.0723
CCTCGCAG | -0.134
ACGCCAAT | 0.165
ATTGTGAG | 0.0877
AATAGACG | 0.0374
CCGTGCTC | 0.0134
CCTCGTCC | -0.0417
ATATGTTC | 0.0931
GGTATGAC | -0.0832
CCTCTGAA | -0.0416
ATAATCAC | 0.164
TTACAAAA | 0.108
GGCCCAGA | -0.206
AAGCCGAT | 0.145
CCCCGGGA | -0.0884
AGAAGATC | -0.00975
AAACCACC | -0.0593
CCTGCGGC | -0.168
ACTACCCA | -0.00273
AGCAACAT | -0.0597
CCGAGCTC | 0.0994
CCAGTGCA | -0.0882
AGGTCATA | -0.0661
ACATAAAT | 0.173
CAGTCGAG | -0.134

Sequence | PBM E-score
GGACTAAC | -0.147
AACCTCCT | -0.264
GACCTGGA | -0.178
AAAGAATG | 0.0464
AGCCTAAC | -0.172
AGTGGCCC | 0.0766
CAATCCGA | 0.185
GCCCCACC | 0.106
ACCAAAAC | 0.129
TAACACTA | 0.248
ATGTCTCC | 0.0494
ACCGGGAG | -0.288
AGGACCGG | -0.203
GGACCGGA | -0.0717
CTGGACGC | -0.0455
CGTGAAGA | -0.0995
GAATATCA | 0.0654
CCTTCTTA | -0.0639
GGCAGCCA | -0.144
